Assay results taken from patent US20050036904A1, “Methods for eradication of nanobacteria” (priority 1998, published 2005).
At least one structure is not confirmed: it was looked up by name or label, or the drawing left a doubt.

Legend:
human nanobacteria = assay: MIC test on human nanobacteria isolates; format: cell-based; conditions: compared to the bovine nanobacteria standard strain
nanobacteria = assay: Treatment of human patients infected with nanobacteria; format: in vivo; conditions: kidney stone patients treated with 4×500 mg/day

CN(C)[C@@H]1C(O)=C(C(N)=O)C(=O)[C@@]2(O)C(O)=C3C(=O)c4c(O)cccc4[C@@](C)(O)[C@H]3C[C@@H]12 [Tetracycline]
Effect on human nanobacteria isolates (human nanobacteria): effective for human nanobacteria isolates similarly compared to the bovine nanobacteria standard strain | Urine culture results for nanobacteria (nanobacteria): began to have negative urine cultures during the treatment
